Results are given in words; binding and its absence hold for the method and conditions named. Binding seen in cells or lysates may run through a third protein. Some binding calls cover weakened binding; strength is not graded here. Tags and fused reporters may be left off the sequences shown.
Molecular target: HDAC4-Flag (UniProt P56524)
Assay: co-IP; HepG2 cells co-transfected with HA-Nup155 and HDAC4-Flag, harvested after 24 h in non-denaturing lysis buffer; anti-Flag antibody on Dynabeads Protein G mixed with whole protein lysate overnight at 4 °C; IgG1 as negative control; immunoblot

Protein sequences, listed by entry. Tags and fused reporters are not part of them.
UniProt P56524: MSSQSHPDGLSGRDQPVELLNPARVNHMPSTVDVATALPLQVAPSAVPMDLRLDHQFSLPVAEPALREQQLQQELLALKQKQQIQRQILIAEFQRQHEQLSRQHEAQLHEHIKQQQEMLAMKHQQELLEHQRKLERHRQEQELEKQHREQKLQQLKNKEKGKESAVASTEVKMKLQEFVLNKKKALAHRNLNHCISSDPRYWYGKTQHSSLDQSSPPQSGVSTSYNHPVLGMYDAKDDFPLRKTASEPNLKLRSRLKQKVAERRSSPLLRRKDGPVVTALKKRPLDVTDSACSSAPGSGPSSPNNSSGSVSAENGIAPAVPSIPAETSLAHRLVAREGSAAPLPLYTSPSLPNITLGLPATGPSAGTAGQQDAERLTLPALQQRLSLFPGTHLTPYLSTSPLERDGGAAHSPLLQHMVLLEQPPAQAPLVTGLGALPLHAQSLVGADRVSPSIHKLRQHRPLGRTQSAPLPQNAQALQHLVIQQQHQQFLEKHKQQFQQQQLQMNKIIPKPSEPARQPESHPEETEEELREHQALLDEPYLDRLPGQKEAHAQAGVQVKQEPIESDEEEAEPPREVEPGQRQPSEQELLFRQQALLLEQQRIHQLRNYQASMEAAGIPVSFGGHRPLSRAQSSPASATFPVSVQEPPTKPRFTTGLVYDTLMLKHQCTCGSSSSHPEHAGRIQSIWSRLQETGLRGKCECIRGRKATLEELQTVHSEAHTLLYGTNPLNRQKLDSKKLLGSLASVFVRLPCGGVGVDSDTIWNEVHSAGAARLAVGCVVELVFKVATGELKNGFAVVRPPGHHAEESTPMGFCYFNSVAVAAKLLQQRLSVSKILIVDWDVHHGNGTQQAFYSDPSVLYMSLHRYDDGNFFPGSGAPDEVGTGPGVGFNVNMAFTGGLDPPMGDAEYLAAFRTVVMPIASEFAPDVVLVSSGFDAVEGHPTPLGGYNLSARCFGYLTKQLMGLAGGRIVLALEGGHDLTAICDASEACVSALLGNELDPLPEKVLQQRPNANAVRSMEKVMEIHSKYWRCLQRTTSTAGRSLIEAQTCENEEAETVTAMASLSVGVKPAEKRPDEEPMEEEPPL

binding: binds
B1: Nup155 (N-terminally His6-HA-StrepII-tagged) (protein, UniProt O75694 1-1391)
chain: MPSSLLGAAMPASTSAAALQEALENAGRLIDRQLQEDRMYPDLSELLMVSAPNNPTVSGMSDMDYPLQGPGLLSVPNLPEISSIRRVPLPPELVEQFGHMQCNCMMGVFPPISRAWLTIDSDIFMWNYEDGGDLAYFDGLSETILAVGLVKPKAGIFQPHVRHLLVLATPVDIVILGLSYANLQTGSGVLNDSLSGGMQLLPDPLYSLPTDNTYLLTITSTDNGRIFLAGKDGCLYEVAYQAEAGWFSQRCRKINHSKSSLSFLVPSLLQFTFSEDDPILQIAIDNSRNILYTRSEKGVIQVYDLGQDGQGMSRVASVSQNAIVSAAGNIARTIDRSVFKPIVQIAVIENSESLDCQLLAVTHAGVRLYFSTCPFRQPLARPNTLTLVHVRLPPGFSASSTVEKPSKVHRALYSKGILLMAASENEDNDILWCVNHDTFPFQKPMMETQMTAGVDGHSWALSAIDELKVDKIITPLNKDHIPITDSPVVVQQHMLPPKKFVLLSAQGSLMFHKLRPVDQLRHLLVSNVGGDGEEIERFFKLHQEDQACATCLILACSTAACDREVSAWATRAFFRYGGEAQMRFPTTLPPPSNVGPILGSPVYSSSPVPSGSPYPNPSFLGTPSHGIQPPAMSTPVCALGNPATQATNMSCVTGPEIVYSGKHNGICIYFSRIMGNIWDASLVVERIFKSGNREITAIESSVPCQLLESVLQELKGLQEFLDRNSQFAGGPLGNPNTTAKVQQRLIGFMRPENGNPQQMQQELQRKFHEAQLSEKISLQAIQQLVRKSYQALALWKLLCEHQFTIIVAELQKELQEQLKITTFKDLVIRDKELTGALIASLINCYIRDNAAVDGISLHLQDICPLLYSTDDAICSKANELLQRSRQVQNKTEKERMLRESLKEYQKISNQVDLSNVCAQYRQVRFYEGVVELSLTAAEKKDPQGLGLHFYKHGEPEEDIVGLQAFQERLNSYKCITDTLQELVNQSKAAPQSPSVPKKPGPPVLSSDPNMLSNEEAGHHFEQMLKLSQRSKDELFSIALYNWLIQVDLADKLLQVASPFLEPHLVRMAKVDQNRVRYMDLLWRYYEKNRSFSNAARVLSRLADMHSTEISLQQRLEYIARAILSAKSSTAISSIAADGEFLHELEEKMEVARIQLQIQETLQRQYSHHSSVQDAVSQLDSELMDITKLYGEFADPFKLAECKLAIIHCAGYSDPILVQTLWQDIIEKELSDSVTLSSSDRMHALSLKIVLLGKIYAGTPRFFPLDFIVQFLEQQVCTLNWDVGFVIQTMNEIGVPLPRLLEVYDQLFKSRDPFWNRMKKPLHLLDCIHVLLIRYVENPSQVLNCERRRFTNLCLDAVCGYLVELQSMSSSVAVQAITGNFKSLQAKLERLH
